In paper PMC6456494:
No constants are given. Whether binding was seen depends on the method and setting. Binding seen in cells or lysates may run through a third protein. Some results given as binding are weak or reduced against the parent protein; the word gives no strength. Where a sequence is shown, tags or fusion partners need not be part of it. Blank lines part the entries; values can stand above or below the molecule they belong to.

Amino acid sequences for entries named in this document (tags omitted).
UniProt Q5SXA9: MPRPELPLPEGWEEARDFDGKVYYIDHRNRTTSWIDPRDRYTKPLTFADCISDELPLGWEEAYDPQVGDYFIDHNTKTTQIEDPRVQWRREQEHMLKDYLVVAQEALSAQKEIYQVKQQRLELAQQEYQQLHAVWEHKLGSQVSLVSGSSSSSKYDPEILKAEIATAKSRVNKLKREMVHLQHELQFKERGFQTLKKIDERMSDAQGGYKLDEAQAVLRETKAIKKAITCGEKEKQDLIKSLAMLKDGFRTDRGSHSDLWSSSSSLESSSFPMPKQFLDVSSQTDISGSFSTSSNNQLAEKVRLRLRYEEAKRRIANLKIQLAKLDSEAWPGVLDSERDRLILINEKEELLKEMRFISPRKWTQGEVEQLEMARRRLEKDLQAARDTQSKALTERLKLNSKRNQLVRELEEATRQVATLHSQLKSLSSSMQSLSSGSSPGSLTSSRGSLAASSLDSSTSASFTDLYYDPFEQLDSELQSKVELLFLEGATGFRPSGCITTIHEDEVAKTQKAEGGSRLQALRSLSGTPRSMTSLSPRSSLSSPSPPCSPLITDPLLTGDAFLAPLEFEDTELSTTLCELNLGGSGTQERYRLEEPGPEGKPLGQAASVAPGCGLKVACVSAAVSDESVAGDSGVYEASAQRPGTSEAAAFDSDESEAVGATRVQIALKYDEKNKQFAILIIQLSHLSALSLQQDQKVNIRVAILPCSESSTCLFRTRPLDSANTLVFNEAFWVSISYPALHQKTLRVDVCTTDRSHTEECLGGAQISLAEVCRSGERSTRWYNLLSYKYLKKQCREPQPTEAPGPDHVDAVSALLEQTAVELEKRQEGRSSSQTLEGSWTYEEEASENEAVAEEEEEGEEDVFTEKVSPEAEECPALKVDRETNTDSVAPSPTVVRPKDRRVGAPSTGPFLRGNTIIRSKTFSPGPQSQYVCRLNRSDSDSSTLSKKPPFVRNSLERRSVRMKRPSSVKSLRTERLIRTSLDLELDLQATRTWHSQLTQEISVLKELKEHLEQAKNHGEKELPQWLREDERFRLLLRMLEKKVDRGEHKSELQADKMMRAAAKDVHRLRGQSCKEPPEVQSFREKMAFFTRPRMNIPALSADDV

Tests used:
[1] = molecular target: T1, DsRed-tagged Rab27a (mouse) (UniProt Q9ERI2); experiment: co-IP; 293T cells cotransfected with GFP-KIBRA and DsRed-Rab27a, lysed 48 h after transfection (25 mM Tris, 150 mM NaCl, 1 mM EDTA, 1% NP-40, 5% glycerinum, pH 7.4); Pierce Co-IP kit; IP with anti-KIBRA or anti-Rab27a antibody or normal IgG, blotted in a crossed manner
T1 sequence: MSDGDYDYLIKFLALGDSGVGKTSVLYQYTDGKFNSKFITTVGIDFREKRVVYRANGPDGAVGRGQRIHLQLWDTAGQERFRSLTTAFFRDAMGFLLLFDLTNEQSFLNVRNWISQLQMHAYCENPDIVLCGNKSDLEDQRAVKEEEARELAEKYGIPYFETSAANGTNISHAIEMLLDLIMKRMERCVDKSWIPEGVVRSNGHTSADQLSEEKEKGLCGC

GFP-tagged KIBRA (mouse) = GFP-tagged KIBRA (mouse) (UniProt Q5SXA9); experiment: as above

binding [1]: binds
Molecule: GFP-tagged KIBRA (from UniProt Q5SXA9 1-1104)

binding (GFP-tagged KIBRA (mouse)): binds
B1: DsRed-tagged Rab27a (protein, UniProt Q9ERI2 1-221)
chain: T1 sequence
